Reference: patent US6613536B1, “Synthetic peptides and pharmaceutical compositions comprising them for the treatment of systemic lupus erythematosus” (Yeda Research and Development Co. Ltd., priority 1995, dated 2003)
Results are given in words; binding and its absence hold for the method and conditions named. Some results given as binding are weak or reduced against the parent protein; the word gives no strength.

T1: MHC class II products (H-2d) on splenic antigen-presenting cells of BALB/c mice (mouse) (UniProt P04228)
T1 sequence (alpha): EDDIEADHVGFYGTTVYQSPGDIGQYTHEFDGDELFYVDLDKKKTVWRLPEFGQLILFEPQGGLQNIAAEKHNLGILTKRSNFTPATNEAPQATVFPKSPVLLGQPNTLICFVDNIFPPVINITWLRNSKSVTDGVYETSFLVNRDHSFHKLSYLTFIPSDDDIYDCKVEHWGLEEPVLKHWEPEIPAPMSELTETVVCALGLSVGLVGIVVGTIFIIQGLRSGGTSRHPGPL
T1 sequence (beta): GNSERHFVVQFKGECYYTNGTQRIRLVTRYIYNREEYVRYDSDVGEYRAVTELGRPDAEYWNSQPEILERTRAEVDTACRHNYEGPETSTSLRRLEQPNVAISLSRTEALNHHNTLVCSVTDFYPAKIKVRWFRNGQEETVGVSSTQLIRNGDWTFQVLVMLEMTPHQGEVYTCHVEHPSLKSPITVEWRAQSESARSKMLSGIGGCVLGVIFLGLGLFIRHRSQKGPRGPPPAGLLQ


Target: T1, MHC class II products (H-2d) on splenic antigen-presenting cells of BALB/c mice (mouse)
Assay: flow cytometry, biotinylated peptide on BALB/c splenic APC (FIG. 8)

Binder | binding
YYCARFLWEPYAMDYWGQGS (N-terminal biotinylation (biotinamidocaproate N-hydroxysuccinimide ester)) [biotinylated CDR-based peptide IIIa] | binds
TGYYMQWVKQSPEKSLEWIG (N-terminal biotinylation (biotinamidocaproate N-hydroxysuccinimide ester)) [biotinylated CDR-based peptide Ia] | binds
